Assay results reported in PubChem BioAssay AID493014 (National Center for Advancing Translational Sciences (NCATS), 2011).
Several values for one entry are separate records, joined by “and”; a condition that tells them apart may be missing. Equal entries are not always repeated. Some of the results follow. Shown are side measurements of this screen, not its main read-out; they come without a call. Most of these compounds were active or inconclusive in the main read-out, so they are no random draw. The note in brackets gives the kind of curve behind each potency; many fits are weak.

Experiment: qHTS Assay to Find Inhibitors of Chronic Active B-Cell Receptor Signaling
Settings: ABC-DLBCL IkBa-CBG/CBR reporter, luminescence ratio (green luciferase fused to IkBa over red control in TMD8 lymphoma cells), 4 h
Outline: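 Doxycycline induced both beetle luciferases in TMD8 lymphoma cells; IKK-driven degradation limits the IkappaBalpha-fused green signal, while red luminescence normalises for cell number and nonspecific effects. Compounds tested up to 46 uM, 4 hrs.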

[1] = measured here: CBR red luminescence, cell number
[2] = measured here: IkBa-CBG green luminescence

Row | SMILES | AC50 [1] | AC50 [2]
1 | COc1ccc(CNC(=O)COC(=O)c2c(C)nn(-c3ccccc3)c2C)cc1OC | 7.31 µM [falling, partial curve, poor fit] | 
2 | CCN1CCN(CCCNC(=O)c2ccc(/C=C3/Oc4ccccc4N(Cc4cccc(C)c4)C3=O)cc2)CC1 | 5.62 µM [rising, full curve] | 
3 | CCC(/C=N/NC(=O)C(=O)N/N=C/C(CC)CC)CC | 0.0517 µM [rising, full curve, poor fit] | 
4 | COc1ccc(/C=N/Nc2ccccn2)cc1O | 35.5 µM [falling, single point] | 
5 | COc1ccc(NC(=O)COc2ccc(/C=N/O)cc2OC)cc1 | 11.2 µM [falling, single point] | 
6 | Oc1c(C=Nc2cccc3cccnc23)sc2ccccc12 | 11.6 µM [falling, partial curve, poor fit] | 
7 | CCOC(=O)/C(=C/c1ccc(N2CCC(c3ccccc3)=N2)cc1)C(C)=O | 4.11 µM [rising, partial curve, poor fit] | 
8 | CC(=O)/C(N=Nc1ccc(OC(F)(F)F)cc1)=C(\C)O | 35.5 µM [rising, single point] | 
9 | Cc1cc(C)c(C)c(C(=O)c2ccccc2C(=O)O)c1C | 11.2 µM [rising, partial curve, poor fit] | 
10 | CN1C=C/C(=C\c2cc[n+](C)c3ccccc23)c2ccccc21 | 1.26 µM [falling, full curve, poor fit] | 
11 | COC(=O)/C=C(\Oc1ccccc1)C1(O)CCCCC1 | 35.5 µM [rising, single point] | 
12 | Cc1ccc(NC(=O)Cn2nnc(C(=O)NCc3ccccc3)c2N)cc1C | 23.1 µM [rising, single point] | 
13 | Cc1cc(C)c2ccc(/C=N/O)nc2c1O | 11.2 µM [rising, partial curve, poor fit] | 11.2 µM [falling, partial curve]
14 | CCCCn1c2ccccc2c2nnc(SCC(=O)NC3=NN=C(c4ccccc4)CS3)nc21 | 20.6 µM [falling, partial curve] | 
15 | COc1cccc(NC(=O)CN(C)C(C)C(=O)Nc2cc([N+](=O)[O-])ccc2Cl)c1 (configuration not stated) | 35.5 µM [falling, single point] | 
16 | CN(C)C(=O)c1cccc(-c2csc(N3CCC(C(N)=O)CC3)n2)c1 | 29.1 µM [rising, single point] and 5.17 µM [rising, full curve, poor fit] | 
17 | COc1ccc(S(=O)(=O)NCc2ccccc2Cl)cc1OC | 23.1 µM [rising, single point] | 
18 | CCOC(=O)c1sc(NC(=O)CSc2nnc(C)s2)c(C(=O)OCC)c1C | 2.51 µM [falling, partial curve, poor fit] | 
19 | NC(=O)c1c(NC(=O)C2CCCO2)sc2c1CCCC2 (configuration not stated) | 6.51 µM [falling, single point] | 
20 | Cc1cc(C)cc(OCC(=O)N(Cc2cccs2)C2CCS(=O)(=O)C2)c1 (configuration not stated) | 25.9 µM [rising, single point] | 
21 | O=C(OCCN=C1NS(=O)(=O)c2ccccc21)C1CC(=O)N(c2ccc3ccccc3c2)C1 (configuration not stated) | 1.84 µM [rising, full curve] | 
22 | O=C(N/N=C/C(c1ccccc1)c1ccccc1)c1ccccc1F | 35.5 µM [falling, single point] | 

Single records, from the list above:
CCCCn1c2ccccc2c2nnc(SCC(=O)NC3=NN=C(c4ccccc4)CS3)nc21 is entered as AC50 [1]: 20.6 µM [falling, partial curve]
CC(=O)/C(N=Nc1ccc(OC(F)(F)F)cc1)=C(\C)O is entered as AC50 [1]: 35.5 µM [rising, single point]

A portion taken from the entries so far, as a working copy:
Row | SMILES | AC50 [1] | AC50 [2]
1 | COc1ccc(CNC(=O)COC(=O)c2c(C)nn(-c3ccccc3)c2C)cc1OC | 7.31 µM [falling, partial curve, poor fit] | 
2 | CCN1CCN(CCCNC(=O)c2ccc(/C=C3/Oc4ccccc4N(Cc4cccc(C)c4)C3=O)cc2)CC1 | 5.62 µM [rising, full curve] | 

More structures:

Row | SMILES | AC50 [1] | AC50 [2]
23 | CCOC(=O)NC(=O)CN1C(=O)NC(C)(c2ccccc2)C1=O (configuration not stated) | 3.16 µM [falling, single point] | 
24 | Cc1ccc(S(=O)(=O)Nc2ccccc2-c2ccccc2NS(=O)(=O)c2ccc(C)cc2)cc1 | 12.6 µM [falling, partial curve, poor fit] | 
25 | O=c1c(-c2cccc(Cl)c2)c[nH]n1-c1ccccc1 | 0.708 µM [falling, full curve] | 
26 | O=C(Nc1ccccc1C(=O)N/N=C/c1ccccc1)c1ccco1 | 4.47 µM [falling, partial curve] | 
27 | CN1OC2C(=O)N(c3ccccc3)C(=O)C2C1c1ccc(F)cc1 (configuration not stated) | 10 µM [rising, partial curve, poor fit] | 
28 | Cc1csc(NC(=O)CS(=O)(=O)Cc2ccccc2)n1 | 20 µM [falling, partial curve, poor fit] | 
29 | COc1cc(CNC(C)c2ccccc2)cc(Br)c1OCc1ccccc1 (configuration not stated) | 35.5 µM [falling, single point] | 
30 | CC1CN(CCOc2ccc(Cl)c(Cl)c2)CC(C)O1 (configuration not stated) | 35.5 µM [rising, single point] | 
31 | Cc1[nH]c2ccccc2c1CCNC(=O)c1ccc2nccnc2c1 | 12.6 µM [falling, partial curve, poor fit] | 
32 | O=C(CCCN1C(=O)CSc2ncccc21)N1CCN(c2cccc(C(F)(F)F)c2)CC1 | 29.1 µM [falling, single point] | 
33 | COc1ccccc1CNC(=O)CN(C)CC(=O)Nc1cccc(F)c1 | 22.4 µM [rising, single point] | 
34 | CSc1cccc(NC(=S)N2CCC(N(C)C3CCCCC3C)CC2)c1 (configuration not stated) | 11.2 µM [falling, partial curve, poor fit] | 
35 | O=C(CSc1ccc(-c2ccccc2)nn1)c1cccs1 | 11.2 µM [falling, partial curve] | 
36 | Clc1ccc(-c2csc(N/N=C/c3ccco3)n2)cc1 | 10 µM [falling, partial curve] | 
37 | COC(=O)CCn1nnc(-c2ccc(C)cc2)n1 | 1.16 µM [rising, full curve] | 
38 | COc1ccc2c(c1)Cc1sc(NC(=O)c3cccs3)nc1-2 | 7.31 µM [falling, partial curve, poor fit] | 
39 | Clc1ccc(Sc2cc(Cl)c(-c3ccccc3)nn2)cc1 | 0.562 µM [falling, full curve, poor fit] | 
40 | Cc1cc(Br)cc(C)c1NC(=S)NC(=O)CC(C)C | 0.461 µM [falling, partial curve, poor fit] | 
41 | CCCC(=O)C1C(=O)CC(CC(C)SCC)CC1=O (configuration not stated) | 2.91 µM [rising, single point] | 
42 | CCOC(=O)c1sc(=NC(=O)c2ccc(S(=O)(=O)N(C)c3ccccc3)cc2)n(C)c1C | 14.1 µM [rising, single point] | 
43 | COc1ccc(OC)c2sc(N3CCN(C(=O)C(C)(C)C)CC3)nc12 | 11.2 µM [rising, single point] | 
44 | C=C(C)C(=O)Nc1cccc(C2=NOC3(C2)C[C@@H](C(N)=O)N(C(=O)CCCCC)C3)c1 (some centres not stated) | 4.47 µM [rising, full curve, poor fit] | 

Row | SMILES | AC50 [1] | AC50 [2]
45 | Cn1c(=O)[nH]c(=O)c2c1nc(N1CCCCC1)n2C/C=N/Nc1ccc(C(=O)O)cc1 | 1.78 µM [falling, full curve] | 
46 | Cc1ccc(N2CC(C(=O)NCCCn3ccnc3)CC2=O)cc1 (configuration not stated) | 2.59 µM [falling, single point] | 
47 | COc1ccccc1OCCSc1nc(C)c(Cc2ccccc2)c(=O)[nH]1 | 8.91 µM [falling, partial curve, poor fit] | 
48 | CCn1c(SCC(=O)Nc2ccc(NC(C)=O)cc2)nc2c1c(=O)n(C)c(=O)n2C | 2.82 µM [rising, partial curve, poor fit] | 
49 | O=C(Nc1cccnc1)c1ccc(-c2cc(Cl)ccc2Cl)o1 | 17.8 µM [falling, single point] | 
50 | COc1ccc(OCCn2cc(/C(N)=N/O)c3ccccc32)cc1 | 6.31 µM [rising, single point] | 
51 | Cc1cccc(CCNc2nc3ccc(C)cc3n3cnnc23)c1 | 0.631 µM [rising, full curve, poor fit] | 
52 | Cc1cc(C(=O)N2CCc3ccccc32)c2ccccc2n1 | 35.5 µM [rising, single point] | 
53 | FC(F)(F)c1cccc(N/N=C/c2ccccc2)c1 | 0.058 µM [rising, full curve, poor fit] | 
54 | CCOc1cc(CNC(=O)c2sc3ncnc(N(C)C4CCCCC4)c3c2C)ccc1OC | 2.82 µM [rising, partial curve, poor fit] | 
55 | O=C(Nc1cc2ccccc2oc1=O)c1ccccc1 | 1.78 µM [falling, full curve] | 
56 | COc1cccc(C2c3c(oc4ccccc4c3=O)C(=O)N2CCCN2CCOCC2)c1 (configuration not stated) | 11.6 µM [rising, partial curve] | 
57 | CC1=CC(C)C(COC(=O)CN2CCCCC2)C(C)C1 (configuration not stated) | 11.2 µM [rising, partial curve] | 
58 | CCOC(=O)CSC1=C(C#N)C(c2ccc(C)o2)CC(=O)N1 (configuration not stated) | 7.31 µM [rising, partial curve] | 4.61 µM [falling, full curve]
59 | COCCn1c(SCC(=O)N2CCCc3ccccc32)nc2cccnc21 | 6.51 µM [falling, single point] | 
60 | O=c1[nH]ncc(N/N=C\c2ccc(O)cc2O)c1Cl | 7.08 µM [falling, partial curve] | 
61 | CCCCn1c(SCC(=O)Nc2nc(C)cs2)nnc1-c1cccnc1 | 13 µM [falling, partial curve, poor fit] | 
62 | O=C(NNC(=O)c1cccc2ccccc12)c1ccc(-c2ccccc2)cc1 | 20.6 µM [rising, single point] | 
63 | COc1ccc(-c2ccc(=O)n(CC(=O)Nc3ccc(C(=O)NC4CC4)cc3)n2)cc1OC | 0.562 µM [falling, full curve, poor fit] | 
64 | CCCc1cc(-n2cnc3ccccc32)n2c(nc3ccccc32)c1C#N | 3.26 µM [rising, partial curve, poor fit] | 
65 | Cc1csc(SCC(=O)NCc2ccccc2)n1 | 5.62 µM [rising, partial curve, poor fit] | 
